{"source": "paper PMC8012719", "about": "(Frontiers in Pharmacology, 2021)", "experiment_in_all_cases": "microbe, parasite or virus in culture", "key": {"[1]": {"system": "pRABV (pseudovirus enveloped by the RABV glycoprotein G)", "assay_type": "cell-based, rabies virus"}, "RABV CVS strain": {"system": "RABV CVS strain", "assay_type": "cell-based", "settings": "Lyssavirus rabies, 24 h, read-out: CVS EC50"}, "[2]": {"system": "pVSV (pseudovirus expressing a vesicular stomatitis virus envelope glycoprotein)", "assay_type": "cell-based"}}, "note": "Where a name gives a salt, the structure may show the parent alone.", "data": [{"smiles": "CNCCCC12CCC(c3ccccc31)c1ccccc12", "note": "[Maprotiline hydrochloride]", "values": [{"measurement": "SI pRABV", "setting": "[1]", "value": 7.5}, {"measurement": "EC50", "setting": "[1]; Pseudovirus, HEK-293T, 48 h, read-out: pRABV EC50", "value": 6.9, "unit": "µM"}, {"measurement": "EC50", "setting": "RABV CVS strain", "value": 44.2, "unit": "µM"}, {"measurement": "EC50pVSV/EC50pRABV", "setting": "[2]", "value": 4.7}, {"measurement": "EC50", "setting": "[2]; Pseudovirus, HEK-293T, read-out: pVSV EC50", "value": 32.5, "unit": "µM"}]}]}
